PubChem BioAssay AID504764, Drosophila RNAi Screening Center | 2011
The deposit covers about 22,000 reagents; shown is a random part of those that have a named target and a result. In the full data, 403 (1.9%) are marked active. 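Unnormalised raw counts per well; ratio z-scores behind the hit calls and whether each hit raises or lowers signal are not deposited.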 Unmarked entries are inactive. No sequences are given here. The record does not give: the amount of reagent.

Assay: 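Knock-downs that raise or lower a Notch target reporter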 (primary screen)
Cell system: Drosophila Kc167 cells
Reagents: long dsRNA against Drosophila genes
Time to read-out: about 5 days (4 days dsRNA, then 24 h after transfection)
Challenge: transfection of constitutively active membrane-tethered Notch lacking the extracellular domain, read 24 h later
Measurement: 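Light from a Notch-responsive E(spl)m3 luciferase reporter under active Notch, with control-promoter and no-Notch reporter wells to normalise; raw counts from paired wells a and b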
Reading the numbers: induced reporter light, run 1, well a and induced reporter light, run 1, well b: higher = more light from the Notch target reporter with active Notch; control promoter light, run 1, well a and control promoter light, run 1, well b: higher = more light from the viral control promoter (cell number, transfection, viability); uninduced reporter light, run 1, well a: higher = more light from the Notch target reporter without active Notch
Hit rule: 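Hit if the duplicate-averaged log2 ratio of induced to control-promoter light gives a plate-wise z beyond ±2, or induced to uninduced beyond ±1.8; weak-control or discordant-duplicate wells dropped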
Calls: active = modifier hit (raised or lowered Notch signal); inactive = not a hit

CG5267 → induced reporter light, run 1, well a = 1.20e5; induced reporter light, run 1, well b = 81655; control promoter light, run 1, well a = 1.14e5; control promoter light, run 1, well b = 1.09e5; uninduced reporter light, run 1, well a = 8340
CG8746 → induced reporter light, run 1, well a = 1.22e5; induced reporter light, run 1, well b = 1.47e5; control promoter light, run 1, well a = 1.56e5; control promoter light, run 1, well b = 1.43e5; uninduced reporter light, run 1, well a = 13330
Drip → induced reporter light, run 1, well a = 97575; induced reporter light, run 1, well b = 1.13e5; control promoter light, run 1, well a = 1.40e5; control promoter light, run 1, well b = 1.54e5; uninduced reporter light, run 1, well a = 10255
Ugt304A1 → induced reporter light, run 1, well a = 96395; induced reporter light, run 1, well b = 86170; control promoter light, run 1, well a = 84675; control promoter light, run 1, well b = 77410; uninduced reporter light, run 1, well a = 4590
Cyp1 → induced reporter light, run 1, well a = 2.05e5; induced reporter light, run 1, well b = 1.87e5; control promoter light, run 1, well a = 3.13e5; control promoter light, run 1, well b = 2.57e5; uninduced reporter light, run 1, well a = 11725
Rtnl2 → induced reporter light, run 1, well a = 89470; induced reporter light, run 1, well b = 88945; control promoter light, run 1, well a = 81145; control promoter light, run 1, well b = 82670; uninduced reporter light, run 1, well a = 6470
Rpn12 → induced reporter light, run 1, well a = 1.11e5; induced reporter light, run 1, well b = 1.04e5; control promoter light, run 1, well a = 1.34e5; control promoter light, run 1, well b = 90850; uninduced reporter light, run 1, well a = 4435
Rap1 → induced reporter light, run 1, well a = 82870; induced reporter light, run 1, well b = 84180; control promoter light, run 1, well a = 1.60e5; control promoter light, run 1, well b = 2.05e5; uninduced reporter light, run 1, well a = 7445
CG7272 → induced reporter light, run 1, well a = 1.51e5; induced reporter light, run 1, well b = 1.45e5; control promoter light, run 1, well a = 2.23e5; control promoter light, run 1, well b = 2.10e5; uninduced reporter light, run 1, well a = 6095
CG16787 → induced reporter light, run 1, well a = 1.55e5; induced reporter light, run 1, well b = 1.64e5; control promoter light, run 1, well a = 1.50e5; control promoter light, run 1, well b = 1.45e5; uninduced reporter light, run 1, well a = 10192

Laid out differently: 2 of the entries above
Target gene	induced reporter light, run 1, well a	induced reporter light, run 1, well b	control promoter light, run 1, well a	control promoter light, run 1, well b	uninduced reporter light, run 1, well a
CG5267	1.20e5	81655	1.14e5	1.09e5	8340
CG8746	1.22e5	1.47e5	1.56e5	1.43e5	13330

Continued:
CG17109 → induced reporter light, run 1, well a = 1.69e5; induced reporter light, run 1, well b = 1.74e5; control promoter light, run 1, well a = 2.08e5; control promoter light, run 1, well b = 1.82e5; uninduced reporter light, run 1, well a = 14755
CG8617 → induced reporter light, run 1, well a = 97545; induced reporter light, run 1, well b = 1.24e5; control promoter light, run 1, well a = 1.36e5; control promoter light, run 1, well b = 1.23e5; uninduced reporter light, run 1, well a = 10185
gol → induced reporter light, run 1, well a = 2.05e5; induced reporter light, run 1, well b = 2.40e5; control promoter light, run 1, well a = 1.87e5; control promoter light, run 1, well b = 2.35e5; uninduced reporter light, run 1, well a = 14245
CG32407 → induced reporter light, run 1, well a = 3.37e5; induced reporter light, run 1, well b = 3.24e5; control promoter light, run 1, well a = 3.83e5; control promoter light, run 1, well b = 3.07e5; uninduced reporter light, run 1, well a = 11682
rdgB → induced reporter light, run 1, well a = 1.76e5; induced reporter light, run 1, well b = 1.69e5; control promoter light, run 1, well a = 3.07e5; control promoter light, run 1, well b = 2.57e5; uninduced reporter light, run 1, well a = 12955
CG11110 → induced reporter light, run 1, well a = 2.40e5; induced reporter light, run 1, well b = 1.90e5; control promoter light, run 1, well a = 2.09e5; control promoter light, run 1, well b = 2.22e5; uninduced reporter light, run 1, well a = 10525
CG31784 → induced reporter light, run 1, well a = 65545; induced reporter light, run 1, well b = 56615; control promoter light, run 1, well a = 75365; control promoter light, run 1, well b = 58710; uninduced reporter light, run 1, well a = 4730
ccb → induced reporter light, run 1, well a = 90770; induced reporter light, run 1, well b = 1.05e5; control promoter light, run 1, well a = 88215; control promoter light, run 1, well b = 96480; uninduced reporter light, run 1, well a = 9870
